Among the data in article doi:10.1101/2022.05.30.493970 are binding values, retold here.

Chains of the proteins cited; added tags and fusions are not shown. Lines headed by an entry give the natural chain unless they say otherwise; changes in a name come on top.
UniProt P07320, whole entry: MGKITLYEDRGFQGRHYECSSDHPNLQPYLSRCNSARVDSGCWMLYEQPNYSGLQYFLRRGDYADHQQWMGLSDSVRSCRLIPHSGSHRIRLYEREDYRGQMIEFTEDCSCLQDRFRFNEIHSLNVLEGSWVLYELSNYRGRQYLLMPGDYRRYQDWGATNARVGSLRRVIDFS

The target of test [1] is GammaD-crystallin WT (UniProt P07320). Put plainly: SEC. For orientation: SEC sorts molecules by how far they enter the pores of the column.
Test [2] shares this target. The test is described as follows: SEC. This is another data set of the same source.

Where a chain is given by its changes, count along the chain named. Numbers in names are those of the source. Read-outs that look alike come from different tables or passages of the source. These are yes or no findings as the source states them, for the method shown.

B1: HSPB5 WT (full length) (protein, UniProt P02511 1-175)
chain: MDIAIHHPWIRRPFFPFHSPSRLFDQFFGEHLLESDLFPTSTSLSPFYLRPPSFLRAPSWFDTGLSEMRLEKDRFSVNLDVKHFSPEELKVKVLGDVIEVHGKHEERQDEHGFISREFHRKYRIPADVDPLTITSSLSSDGVLTVNGPRKQVSGPERTIPITREEKPAVTAAPKK
Regarding B1, the binding entry with GammaD-crystallin WT [1] is “no binding”.

B2: HSPB5 D109H (protein, UniProt P02511 1-175)
chain: B1 chain with D109H
As for B2, the binding entry with GammaD-crystallin WT [2] and in the test with GammaD-crystallin WT [1] was “no binding” in each case.

B3: HSPB5 R120G (protein, UniProt P02511 1-175)
chain: B1 chain with R120G
For B3, the binding result in the test with GammaD-crystallin WT [2] and in the test with GammaD-crystallin WT [1] was “no binding” each time.
